Experiments:
Assay type in all cases: physicochemical
[1] = Test 1: minimum film forming temperature (MFT), resin 1; conditions: 5 mass % in resin 1, 75 μm coating film, observed after 1 h
[2] = Test 1: minimum film forming temperature (MFT), resin 2; conditions: 5 mass % in resin 2, 75 μm coating film, observed after 1 h
[3] = Test 4: water resistance test of coating film; conditions: 5 mass % in resin 1, 75-μm film on glass, warm water 50° C., checked hourly up to 12 hrs; not whitened after 12 hrs = passed

CN1CCCC1=O [Comparative Product 11, N-methylpyrrolidone]
Test 1: minimum film forming temperature (MFT) [1]: 24.2 °C | Test 1: minimum film forming temperature (MFT) [2]: 26.3 °C | Test 4: water resistance, time to whitening of coating film [3]: 10 h

CCCCOCCO [Comparative Product 10, butyl cellosolve]
Test 1: minimum film forming temperature (MFT) [1]: 29.3 °C | Test 1: minimum film forming temperature (MFT) [2]: 30.3 °C | Test 4: water resistance, time to whitening of coating film [3]: Passed the test
